Test results reported in article doi:10.1101/2024.12.19.629515.
Results are given in words; binding and its absence hold for the method and conditions named. For some of these results: In cells and extracts the contact can be indirect. Some binding calls cover weakened binding; strength is not graded here. For some of these results: Sequences can lack the tags named with a protein.

By UniProt entry, the sequences of proteins in these tests, tags left out. Where a name states a change or a piece, a line headed by the entry shows the natural chain unless it says otherwise. Residues count along the entry.
UniProt O22476, 24-1196: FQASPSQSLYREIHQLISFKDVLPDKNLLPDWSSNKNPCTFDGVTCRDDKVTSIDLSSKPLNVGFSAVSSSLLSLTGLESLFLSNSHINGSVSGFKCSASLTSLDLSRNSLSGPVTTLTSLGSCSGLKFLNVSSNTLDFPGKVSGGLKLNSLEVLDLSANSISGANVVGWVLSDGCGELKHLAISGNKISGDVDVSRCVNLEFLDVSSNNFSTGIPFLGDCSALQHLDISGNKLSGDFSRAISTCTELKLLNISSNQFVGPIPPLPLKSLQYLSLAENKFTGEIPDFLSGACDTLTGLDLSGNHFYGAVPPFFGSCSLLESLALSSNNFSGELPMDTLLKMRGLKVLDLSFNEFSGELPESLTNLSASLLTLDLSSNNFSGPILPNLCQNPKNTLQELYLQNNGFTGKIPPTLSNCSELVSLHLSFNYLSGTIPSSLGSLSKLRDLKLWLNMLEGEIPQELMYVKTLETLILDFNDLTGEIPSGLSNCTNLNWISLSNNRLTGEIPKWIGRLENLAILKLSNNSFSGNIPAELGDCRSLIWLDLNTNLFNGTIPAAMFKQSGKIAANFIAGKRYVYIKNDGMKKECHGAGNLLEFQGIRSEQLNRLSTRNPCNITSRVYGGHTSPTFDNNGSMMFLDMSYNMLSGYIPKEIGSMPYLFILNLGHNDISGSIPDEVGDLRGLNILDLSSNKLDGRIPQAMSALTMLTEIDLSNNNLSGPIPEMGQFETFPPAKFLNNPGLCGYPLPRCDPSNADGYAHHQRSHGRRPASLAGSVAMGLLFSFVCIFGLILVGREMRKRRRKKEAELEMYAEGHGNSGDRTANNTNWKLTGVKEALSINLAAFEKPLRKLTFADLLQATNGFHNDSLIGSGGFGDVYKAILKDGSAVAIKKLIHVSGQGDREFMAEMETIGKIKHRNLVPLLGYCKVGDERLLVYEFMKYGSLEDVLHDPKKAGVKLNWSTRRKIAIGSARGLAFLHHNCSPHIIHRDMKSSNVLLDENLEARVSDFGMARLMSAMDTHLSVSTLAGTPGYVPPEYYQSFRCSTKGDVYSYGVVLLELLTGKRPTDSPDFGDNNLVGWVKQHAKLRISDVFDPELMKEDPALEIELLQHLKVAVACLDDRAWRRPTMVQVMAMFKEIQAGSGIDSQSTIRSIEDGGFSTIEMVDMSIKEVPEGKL
UniProt O22476, whole entry, looked up, stated change not applied: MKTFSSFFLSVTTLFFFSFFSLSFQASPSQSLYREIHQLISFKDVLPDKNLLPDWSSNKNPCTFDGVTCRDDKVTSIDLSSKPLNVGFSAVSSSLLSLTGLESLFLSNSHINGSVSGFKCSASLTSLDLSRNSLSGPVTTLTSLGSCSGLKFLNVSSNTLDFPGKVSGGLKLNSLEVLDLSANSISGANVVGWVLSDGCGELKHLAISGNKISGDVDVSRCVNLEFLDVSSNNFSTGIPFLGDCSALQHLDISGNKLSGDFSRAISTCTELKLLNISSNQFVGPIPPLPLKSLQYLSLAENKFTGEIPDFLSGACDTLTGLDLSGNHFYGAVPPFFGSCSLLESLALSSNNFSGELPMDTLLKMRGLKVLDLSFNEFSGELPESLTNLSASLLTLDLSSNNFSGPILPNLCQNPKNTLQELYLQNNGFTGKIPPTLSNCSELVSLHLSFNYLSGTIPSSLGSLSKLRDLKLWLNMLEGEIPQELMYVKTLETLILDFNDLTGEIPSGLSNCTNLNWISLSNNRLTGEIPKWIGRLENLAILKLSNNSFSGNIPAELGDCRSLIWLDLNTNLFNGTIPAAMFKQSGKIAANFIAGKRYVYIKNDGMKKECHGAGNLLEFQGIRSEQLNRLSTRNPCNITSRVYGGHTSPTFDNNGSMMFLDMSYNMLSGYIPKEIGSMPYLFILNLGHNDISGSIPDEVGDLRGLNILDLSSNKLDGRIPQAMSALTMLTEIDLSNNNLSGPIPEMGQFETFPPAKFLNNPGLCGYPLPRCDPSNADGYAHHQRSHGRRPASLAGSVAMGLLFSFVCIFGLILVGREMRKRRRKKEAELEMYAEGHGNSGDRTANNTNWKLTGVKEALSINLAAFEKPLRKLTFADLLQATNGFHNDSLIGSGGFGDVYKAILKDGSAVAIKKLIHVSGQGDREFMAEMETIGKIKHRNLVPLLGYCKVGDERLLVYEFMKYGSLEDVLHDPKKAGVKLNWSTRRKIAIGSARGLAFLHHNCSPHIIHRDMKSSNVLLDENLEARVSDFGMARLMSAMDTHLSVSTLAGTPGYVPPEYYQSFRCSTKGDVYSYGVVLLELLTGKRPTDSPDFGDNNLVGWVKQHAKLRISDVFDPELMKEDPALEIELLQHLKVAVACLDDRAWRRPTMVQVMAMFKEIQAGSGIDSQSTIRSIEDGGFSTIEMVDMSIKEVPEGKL
UniProt Q9LN63, whole entry: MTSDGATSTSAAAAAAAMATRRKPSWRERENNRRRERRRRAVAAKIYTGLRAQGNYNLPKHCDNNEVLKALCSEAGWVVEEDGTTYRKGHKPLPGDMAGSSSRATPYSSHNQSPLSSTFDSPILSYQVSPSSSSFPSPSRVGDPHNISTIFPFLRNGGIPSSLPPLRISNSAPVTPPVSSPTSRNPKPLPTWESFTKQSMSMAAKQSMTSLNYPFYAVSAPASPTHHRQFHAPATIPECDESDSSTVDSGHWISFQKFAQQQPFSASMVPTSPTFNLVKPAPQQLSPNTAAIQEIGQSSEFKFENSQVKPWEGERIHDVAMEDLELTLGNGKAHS
UniProt Q96299, whole entry: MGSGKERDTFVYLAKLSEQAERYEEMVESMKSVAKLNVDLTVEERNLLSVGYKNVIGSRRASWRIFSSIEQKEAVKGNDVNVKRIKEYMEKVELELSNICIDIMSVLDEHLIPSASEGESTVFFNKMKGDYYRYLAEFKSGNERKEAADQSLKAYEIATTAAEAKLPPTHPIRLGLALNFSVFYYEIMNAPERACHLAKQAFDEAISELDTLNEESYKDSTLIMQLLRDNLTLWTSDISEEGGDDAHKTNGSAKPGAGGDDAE

Experiments:
[1] = molecular target: HA-tagged BRI1 (BRI1-HA) (Arabidopsis thaliana) (UniProt O22476); assay: co-IP
[2] = molecular target: BRI1 in pBT3-STE (split-ubiquitin bait) (Arabidopsis thaliana) (UniProt O22476); assay: two-hybrid
[3] = molecular target: BRI1^S858A;T872A in pBT3-STE (split-ubiquitin bait) (Arabidopsis thaliana) (UniProt O22476); assay: two-hybrid
[4] = molecular target: BES1-S-GFP (Arabidopsis thaliana) (UniProt Q9LN63); assay: co-IP
[5] = molecular target: BRI1-GFP (Arabidopsis thaliana) (UniProt O22476); assay: co-IP
[6] = molecular target: BRI1-mCitrine (BRI1-mCit) (Arabidopsis thaliana) (UniProt O22476); assay: co-IP
[7] = molecular target: T1, BKI1-GFP (Arabidopsis thaliana) (UniProt Q9FMZ0); assay: co-IP
T1 sequence: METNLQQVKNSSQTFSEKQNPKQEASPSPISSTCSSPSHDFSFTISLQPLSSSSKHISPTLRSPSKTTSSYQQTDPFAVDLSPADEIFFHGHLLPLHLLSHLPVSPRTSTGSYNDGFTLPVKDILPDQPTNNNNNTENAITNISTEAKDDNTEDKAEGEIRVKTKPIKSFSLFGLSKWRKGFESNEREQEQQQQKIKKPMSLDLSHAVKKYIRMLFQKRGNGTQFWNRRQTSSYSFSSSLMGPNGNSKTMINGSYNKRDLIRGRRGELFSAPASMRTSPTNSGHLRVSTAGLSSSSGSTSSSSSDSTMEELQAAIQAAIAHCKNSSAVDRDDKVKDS

[8] = molecular target: BRI1-cYFP (Arabidopsis thaliana) (UniProt O22476); assay: split reporter
[9] = molecular target: BRI1^S858A;T872A-mCitrine (BRI1^S858A;T872A-mCit) (Arabidopsis thaliana) (UniProt O22476); assay: co-IP

GFP-tagged GRF9 (GRF9-GFP) (from UniProt Q96299 1-263)
binding [1]: binds

B1: GFP-tagged GRF2 (GRF2-GFP) (protein, UniProt Q01525 1-259)
chain: MASGREEFVYMAKLAEQAERYEEMVEFMEKVSAAVDGDELTVEERNLLSVAYKNVIGARRASWRIISSIEQKEESRGNDDHVTAIREYRSKIETELSGICDGILKLLDSRLIPAAASGDSKVFYLKMKGDYHRYLAEFKTGQERKDAAEHTLAAYKSAQDIANAELAPTHPIRLGLALNFSVFYYEILNSPDRACNLAKQAFDEAIAELDTLGEESYKDSTLIMQLLRDNLTLWTSDMQDDAADEIKEAAAPKPTEEQQ
binding [1]: binds

B2: GFP-tagged GRF3 (GRF3-GFP) (protein, UniProt P42644 1-255)
chain: MSTREENVYMAKLAEQAERYEEMVEFMEKVAKTVDVEELSVEERNLLSVAYKNVIGARRASWRIISSIEQKEESKGNEDHVAIIKDYRGKIESELSKICDGILNVLEAHLIPSASPAESKVFYLKMKGDYHRYLAEFKAGAERKEAAESTLVAYKSASDIATAELAPTHPIRLGLALNFSVFYYEILNSPDRACSLAKQAFDDAIAELDTLGEESYKDSTLIMQLLRDNLTLWTSDMTDEAGDEIKEASKPDGAE
binding [1]: binds

B3: GFP-tagged GRF5 (GRF5-GFP) (protein, UniProt P42645 1-268)
chain: MSSDSSREENVYLAKLAEQAERYEEMVEFMEKVAKTVETEELTVEERNLLSVAYKNVIGARRASWRIISSIEQKEDSRGNSDHVSIIKDYRGKIETELSKICDGILNLLEAHLIPAASLAESKVFYLKMKGDYHRYLAEFKTGAERKEAAESTLVAYKSAQDIALADLAPTHPIRLGLALNFSVFYYEILNSSDRACSLAKQAFDEAISELDTLGEESYKDSTLIMQLLRDNLTLWTSDLNDEAGDDIKEAPKEVQKVDEQAQPPPSQ
binding [1]: binds

B4: GFP-tagged GRF6 (GRF6-GFP) (protein, UniProt P48349 1-248)
chain: MAATLGRDQYVYMAKLAEQAERYEEMVQFMEQLVTGATPAEELTVEERNLLSVAYKNVIGSLRAAWRIVSSIEQKEESRKNDEHVSLVKDYRSKVESELSSVCSGILKLLDSHLIPSAGASESKVFYLKMKGDYHRYMAEFKSGDERKTAAEDTMLAYKAAQDIAAADMAPTHPIRLGLALNFSVFYYEILNSSDKACNMAKQAFEEAIAELDTLGEESYKDSTLIMQLLRDNLTLWTSDMQEQMDEA
binding [1]: binds

B5: GFP-tagged GRF10 (GRF10-GFP) (protein, UniProt P48347 1-254)
chain: MENEREKQVYLAKLSEQTERYDEMVEAMKKVAQLDVELTVEERNLVSVGYKNVIGARRASWRILSSIEQKEESKGNDENVKRLKNYRKRVEDELAKVCNDILSVIDKHLIPSSNAVESTVFFYKMKGDYYRYLAEFSSGAERKEAADQSLEAYKAAVAAAENGLAPTHPVRLGLALNFSVFYYEILNSPESACQLAKQAFDDAIAELDSLNEESYKDSTLIMQLLRDNLTLWTSDLNEEGDERTKGADEPQDEN
binding [1]: binds

B6: GFP-tagged GRF11 (GRF11-GFP) (protein, UniProt Q9S9Z8 1-252)
chain: MENERAKQVYLAKLNEQAERYDEMVEAMKKVAALDVELTIEERNLLSVGYKNVIGARRASWRILSSIEQKEESKGNEQNAKRIKDYRTKVEEELSKICYDILAVIDKHLVPFATSGESTVFYYKMKGDYFRYLAEFKSGADREEAADLSLKAYEAATSSASTELSTTHPIRLGLALNFSVFYYEILNSPERACHLAKRAFDEAIAELDSLNEDSYKDSTLIMQLLRDNLTLWTSDLEEGGEQSKGHNQQDEN
binding [1]: binds

B7: GRF6 in pPR3-N (split-ubiquitin prey) (protein, UniProt P48349 1-248)
chain: MAATLGRDQYVYMAKLAEQAERYEEMVQFMEQLVTGATPAEELTVEERNLLSVAYKNVIGSLRAAWRIVSSIEQKEESRKNDEHVSLVKDYRSKVESELSSVCSGILKLLDSHLIPSAGASESKVFYLKMKGDYHRYMAEFKSGDERKTAAEDTMLAYKAAQDIAAADMAPTHPIRLGLALNFSVFYYEILNSSDKACNMAKQAFEEAIAELDTLGEESYKDSTLIMQLLRDNLTLWTSDMQEQMDEA
binding [2]: binds | binding [3]: no binding

B8: GRF6-HA (protein, UniProt P48349 1-248)
chain: MAATLGRDQYVYMAKLAEQAERYEEMVQFMEQLVTGATPAEELTVEERNLLSVAYKNVIGSLRAAWRIVSSIEQKEESRKNDEHVSLVKDYRSKVESELSSVCSGILKLLDSHLIPSAGASESKVFYLKMKGDYHRYMAEFKSGDERKTAAEDTMLAYKAAQDIAAADMAPTHPIRLGLALNFSVFYYEILNSSDKACNMAKQAFEEAIAELDTLGEESYKDSTLIMQLLRDNLTLWTSDMQEQMDEA
binding [4]: binds | binding [5]: binds | binding [6]: binds

B9: GRF6-3xFlag (protein, UniProt P48349 1-248)
chain: MAATLGRDQYVYMAKLAEQAERYEEMVQFMEQLVTGATPAEELTVEERNLLSVAYKNVIGSLRAAWRIVSSIEQKEESRKNDEHVSLVKDYRSKVESELSSVCSGILKLLDSHLIPSAGASESKVFYLKMKGDYHRYMAEFKSGDERKTAAEDTMLAYKAAQDIAAADMAPTHPIRLGLALNFSVFYYEILNSSDKACNMAKQAFEEAIAELDTLGEESYKDSTLIMQLLRDNLTLWTSDMQEQMDEA
binding [7]: binds

B10: BKI1-nYFP (protein, UniProt Q9FMZ0 1-337)
chain: METNLQQVKNSSQTFSEKQNPKQEASPSPISSTCSSPSHDFSFTISLQPLSSSSKHISPTLRSPSKTTSSYQQTDPFAVDLSPADEIFFHGHLLPLHLLSHLPVSPRTSTGSYNDGFTLPVKDILPDQPTNNNNNTENAITNISTEAKDDNTEDKAEGEIRVKTKPIKSFSLFGLSKWRKGFESNEREQEQQQQKIKKPMSLDLSHAVKKYIRMLFQKRGNGTQFWNRRQTSSYSFSSSLMGPNGNSKTMINGSYNKRDLIRGRRGELFSAPASMRTSPTNSGHLRVSTAGLSSSSGSTSSSSSDSTMEELQAAIQAAIAHCKNSSAVDRDDKVKDS
binding [8]: binds

B11: GRF6-nYFP (protein, UniProt P48349 1-248)
chain: MAATLGRDQYVYMAKLAEQAERYEEMVQFMEQLVTGATPAEELTVEERNLLSVAYKNVIGSLRAAWRIVSSIEQKEESRKNDEHVSLVKDYRSKVESELSSVCSGILKLLDSHLIPSAGASESKVFYLKMKGDYHRYMAEFKSGDERKTAAEDTMLAYKAAQDIAAADMAPTHPIRLGLALNFSVFYYEILNSSDKACNMAKQAFEEAIAELDTLGEESYKDSTLIMQLLRDNLTLWTSDMQEQMDEA
binding [8]: binds weakly

B12: BAK1 (endogenous) (receptor, UniProt Q94F62 26-615)
chain: NAEGDALSALKNSLADPNKVLQSWDATLVTPCTWFHVTCNSDNSVTRVDLGNANLSGQLVMQLGQLPNLQYLELYSNNITGTIPEQLGNLTELVSLDLYLNNLSGPIPSTLGRLKKLRFLRLNNNSLSGEIPRSLTAVLTLQVLDLSNNPLTGDIPVNGSFSLFTPISFANTKLTPLPASPPPPISPTPPSPAGSNRITGAIAGGVAAGAALLFAVPAIALAWWRRKKPQDHFFDVPAEEDPEVHLGQLKRFSLRELQVASDNFSNKNILGRGGFGKVYKGRLADGTLVAVKRLKEERTQGGELQFQTEVEMISMAVHRNLLRLRGFCMTPTERLLVYPYMANGSVASCLRERPESQPPLDWPKRQRIALGSARGLAYLHDHCDPKIIHRDVKAANILLDEEFEAVVGDFGLAKLMDYKDTHVTTAVRGTIGHIAPEYLSTGKSSEKTDVFGYGVMLLELITGQRAFDLARLANDDDVMLLDWVKGLLKEKKLEALVDVDLQGNYKDEEVEQLIQVALLCTQSSPMERPKMSEVVRMLEGDGLAERWEEWQKEEMFRQDFNYPTHHPAVSGWIIGDSTSQIENEYPSGPR
binding [6]: binds | binding [9]: binds

B13: PUB13-HA (enzyme, UniProt Q9SNC6 1-660)
chain: MEEEKASAAQSLIDVVNEIAAISDYRITVKKLCYNLARRLKLLVPMFEEIRESNEPISEDTLKTLMNLKEAMCSAKDYLKFCSQGSKIYLVMEREQVTSKLMEVSVKLEQSLSQIPYEELDISDEVREQVELVLSQFRRAKGRVDVSDDELYEDLQSLCNKSSDVDAYQPVLERVAKKLHLMEIPDLAQESVALHEMVASSGGDVGENIEEMAMVLKMIKDFVQTEDDNGEEQKVGVNSRSNGQTSTAASQKIPVIPDDFRCPISLEMMRDPVIVSSGQTYERTCIEKWIEGGHSTCPKTQQALTSTTLTPNYVLRSLIAQWCEANDIEPPKPPSSLRPRKVSSFSSPAEANKIEDLMWRLAYGNPEDQRSAAGEIRLLAKRNADNRVAIAEAGAIPLLVGLLSTPDSRIQEHSVTALLNLSICENNKGAIVSAGAIPGIVQVLKKGSMEARENAAATLFSLSVIDENKVTIGALGAIPPLVVLLNEGTQRGKKDAATALFNLCIYQGNKGKAIRAGVIPTLTRLLTEPGSGMVDEALAILAILSSHPEGKAIIGSSDAVPSLVEFIRTGSPRNRENAAAVLVHLCSGDPQHLVEAQKLGLMGPLIDLAGNGTDRGKRKAAQLLERISRLAEQQKETAVSQPEEEAEPTHPESTTEAADT
binding [6]: binds | binding [9]: binds
